Test: general procedure: Boc solid-phase peptide synthesis; Boc-D-Trp-Merrifield resin (1% cross-linked)
Details: whole synthesis, scale 0.5 mmol

In the case of “Nε-tert-butyloxycarbonyl-L-lysyl-O-benzyl-L-threonyl-L-prolyl-L-phenylalanyl-D-tryptophyl-NHNH2”, the crude mass is reported as 0.65 g.

— patent publication US4505897A (The Administrators of the Tulane Educational Fund, priority 1983, dated 1985)
